Assay results as given in article PMC11991916.
Results are given in words; binding and its absence hold for the method and conditions named. Binding seen in cells or lysates may run through a third protein.

Molecular target: PHB2–DK (prohibitin 2 fused to the fluorescent protein Dreiklang, expressed from the native genomic locus) (human), Q99623
Assay: co-IP; GFP-Trap agarose beads (nanobody against DK) mixed with 800 µg extract of mitochondria isolated from PHB1-DK or PHB2-DK knock-in U2OS cells; 20 mM Tris-HCl pH 7.5, 50 mM NaCl, 0.5 mM EDTA, 10% glycerol, 0.3% digitonin; 4 °C, 1 h; ten washes; western blot
Conditions: remark: other sources report otherwise

binding: no binding
B1: ATP5A, P25705 44-553 (protein)
chain: QKTGTAEMSSILEERILGADTSVDLEETGRVLSIGDGIARVHGLRNVQAEEMVEFSSGLKGMSLNLEPDNVGVVVFGNDKLIKEGDIVKRTGAIVDVPVGEELLGRVVDALGNAIDGKGPIGSKTRRRVGLKAPGIIPRISVREPMQTGIKAVDSLVPIGRGQRELIIGDRQTGKTSIAIDTIINQKRFNDGSDEKKKLYCIYVAIGQKRSTVAQLVKRLTDADAMKYTIVVSATASDAAPLQYLAPYSGCSMGEYFRDNGKHALIIYDDLSKQAVAYRQMSLLLRRPPGREAYPGDVFYLHSRLLERAAKMNDAFGGGSLTALPVIETQAGDVSAYIPTNVISITDGQIFLETELFYKGIRPAINVGLSVSRVGSAAQTRAMKQVAGTMKLELAQYREVAAFAQFGSDLDAATQQLLSRGVRLTELLKQGQYSPMAIEEQVAVIYAGVRGYLDKLEPSKITKFENAFLSHVVSQHQALLGTIRADGKISEQSDAKLKEIVTNFLAGFEA
